The values below come from the supplement of paper PMC6411743.

Protein sequences, listed by entry. Tags and fused reporters are not part of them. Lines headed by an entry give the natural chain unless they say otherwise; changes in a name come on top.
UniProt Q96RQ1: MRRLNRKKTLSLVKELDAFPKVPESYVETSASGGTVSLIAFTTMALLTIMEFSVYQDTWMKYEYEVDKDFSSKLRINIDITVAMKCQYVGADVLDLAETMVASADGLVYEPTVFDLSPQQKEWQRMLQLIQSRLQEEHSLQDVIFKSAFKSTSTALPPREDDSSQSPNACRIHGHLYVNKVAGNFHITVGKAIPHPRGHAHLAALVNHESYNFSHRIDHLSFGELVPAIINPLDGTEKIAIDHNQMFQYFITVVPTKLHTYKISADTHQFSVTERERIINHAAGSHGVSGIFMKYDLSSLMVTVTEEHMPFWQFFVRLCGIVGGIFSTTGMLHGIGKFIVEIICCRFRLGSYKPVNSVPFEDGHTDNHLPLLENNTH
UniProt Q9NV06: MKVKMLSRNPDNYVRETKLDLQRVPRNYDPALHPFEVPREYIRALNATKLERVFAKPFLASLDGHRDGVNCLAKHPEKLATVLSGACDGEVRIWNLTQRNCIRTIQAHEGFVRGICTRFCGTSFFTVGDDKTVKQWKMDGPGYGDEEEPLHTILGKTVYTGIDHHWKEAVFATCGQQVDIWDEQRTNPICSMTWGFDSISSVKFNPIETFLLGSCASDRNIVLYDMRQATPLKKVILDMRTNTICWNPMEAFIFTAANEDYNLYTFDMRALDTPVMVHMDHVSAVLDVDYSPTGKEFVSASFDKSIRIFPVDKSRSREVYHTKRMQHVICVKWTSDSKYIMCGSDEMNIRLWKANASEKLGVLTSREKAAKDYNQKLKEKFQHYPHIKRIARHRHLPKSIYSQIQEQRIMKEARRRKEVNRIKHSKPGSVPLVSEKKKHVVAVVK
UniProt Q15334: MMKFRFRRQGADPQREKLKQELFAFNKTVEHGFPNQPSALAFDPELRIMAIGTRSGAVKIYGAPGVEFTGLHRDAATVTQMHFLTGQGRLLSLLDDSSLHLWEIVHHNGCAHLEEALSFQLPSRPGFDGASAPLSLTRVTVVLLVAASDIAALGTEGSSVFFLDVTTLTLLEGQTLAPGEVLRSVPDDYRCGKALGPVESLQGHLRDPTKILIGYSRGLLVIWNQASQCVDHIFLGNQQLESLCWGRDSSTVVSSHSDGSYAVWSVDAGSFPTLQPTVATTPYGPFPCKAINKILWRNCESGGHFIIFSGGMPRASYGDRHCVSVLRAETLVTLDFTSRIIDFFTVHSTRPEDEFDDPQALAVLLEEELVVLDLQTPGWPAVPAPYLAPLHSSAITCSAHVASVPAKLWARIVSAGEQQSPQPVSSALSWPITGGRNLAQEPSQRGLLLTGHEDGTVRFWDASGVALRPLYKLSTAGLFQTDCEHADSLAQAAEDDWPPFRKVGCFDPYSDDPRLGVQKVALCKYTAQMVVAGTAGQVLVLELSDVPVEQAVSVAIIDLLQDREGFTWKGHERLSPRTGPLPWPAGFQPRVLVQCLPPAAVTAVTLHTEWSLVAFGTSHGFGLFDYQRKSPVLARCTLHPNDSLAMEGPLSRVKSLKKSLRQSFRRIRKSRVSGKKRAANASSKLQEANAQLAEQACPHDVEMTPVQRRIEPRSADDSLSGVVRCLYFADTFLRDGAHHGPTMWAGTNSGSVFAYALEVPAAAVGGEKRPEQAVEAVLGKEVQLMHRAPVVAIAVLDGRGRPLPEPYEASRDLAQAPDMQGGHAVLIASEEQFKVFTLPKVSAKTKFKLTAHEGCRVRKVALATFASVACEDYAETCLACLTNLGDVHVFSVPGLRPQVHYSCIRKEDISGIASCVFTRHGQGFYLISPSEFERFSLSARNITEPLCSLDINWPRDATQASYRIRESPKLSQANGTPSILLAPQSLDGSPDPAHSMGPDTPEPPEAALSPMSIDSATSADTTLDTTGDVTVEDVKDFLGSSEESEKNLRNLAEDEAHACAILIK
UniProt Q6UB35, whole entry: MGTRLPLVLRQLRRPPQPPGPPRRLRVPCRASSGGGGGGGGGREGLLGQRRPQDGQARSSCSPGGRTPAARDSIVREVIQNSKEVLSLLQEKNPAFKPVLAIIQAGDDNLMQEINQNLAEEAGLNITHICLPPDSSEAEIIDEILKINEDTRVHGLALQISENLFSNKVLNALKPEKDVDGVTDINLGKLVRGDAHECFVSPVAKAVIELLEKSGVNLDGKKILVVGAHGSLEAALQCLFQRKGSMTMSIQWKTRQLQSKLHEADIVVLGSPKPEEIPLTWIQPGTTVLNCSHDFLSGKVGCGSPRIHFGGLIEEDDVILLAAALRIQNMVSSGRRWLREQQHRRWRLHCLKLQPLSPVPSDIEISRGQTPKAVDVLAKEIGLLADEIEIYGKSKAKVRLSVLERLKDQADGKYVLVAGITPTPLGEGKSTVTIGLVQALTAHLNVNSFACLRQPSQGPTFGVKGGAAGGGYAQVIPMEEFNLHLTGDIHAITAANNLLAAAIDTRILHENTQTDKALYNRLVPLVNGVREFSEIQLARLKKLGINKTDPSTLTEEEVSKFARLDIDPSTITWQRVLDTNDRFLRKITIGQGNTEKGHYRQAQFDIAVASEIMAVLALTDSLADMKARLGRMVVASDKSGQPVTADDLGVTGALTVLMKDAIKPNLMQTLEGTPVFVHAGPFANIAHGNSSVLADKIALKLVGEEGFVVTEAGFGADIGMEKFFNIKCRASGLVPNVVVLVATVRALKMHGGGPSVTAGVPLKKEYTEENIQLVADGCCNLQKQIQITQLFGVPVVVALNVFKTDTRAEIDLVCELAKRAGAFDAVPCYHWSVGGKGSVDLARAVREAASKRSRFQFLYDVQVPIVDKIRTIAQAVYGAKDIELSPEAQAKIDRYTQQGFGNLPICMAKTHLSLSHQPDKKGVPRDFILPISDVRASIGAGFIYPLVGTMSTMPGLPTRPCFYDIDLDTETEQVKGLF
UniProt Q8WU76: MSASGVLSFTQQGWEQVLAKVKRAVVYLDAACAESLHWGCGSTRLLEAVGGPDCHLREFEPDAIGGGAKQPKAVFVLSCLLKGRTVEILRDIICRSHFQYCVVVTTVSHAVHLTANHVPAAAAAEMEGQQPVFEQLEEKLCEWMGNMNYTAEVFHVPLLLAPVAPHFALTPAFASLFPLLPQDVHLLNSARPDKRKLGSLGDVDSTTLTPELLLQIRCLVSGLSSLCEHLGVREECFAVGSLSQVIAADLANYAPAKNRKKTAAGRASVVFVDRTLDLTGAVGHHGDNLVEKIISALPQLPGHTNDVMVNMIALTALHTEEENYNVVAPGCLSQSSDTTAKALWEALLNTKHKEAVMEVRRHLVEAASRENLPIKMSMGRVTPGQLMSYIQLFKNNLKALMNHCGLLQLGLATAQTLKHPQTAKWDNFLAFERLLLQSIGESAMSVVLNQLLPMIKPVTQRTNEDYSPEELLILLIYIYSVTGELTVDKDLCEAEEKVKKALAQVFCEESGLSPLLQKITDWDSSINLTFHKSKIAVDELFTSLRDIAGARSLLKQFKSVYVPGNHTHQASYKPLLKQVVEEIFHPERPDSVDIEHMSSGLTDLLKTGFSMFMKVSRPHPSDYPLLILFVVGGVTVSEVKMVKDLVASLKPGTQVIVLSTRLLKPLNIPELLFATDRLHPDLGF

Compound in this assay: Nc1nc2c(ncn2[C@@H]2O[C@H](COP(=O)(O)OP(=O)(O)OP(=O)(O)O)[C@@H](O)[C@H]2O)c(=O)[nH]1 [guanosine triphosphate]
Description: NP40-soluble protein abundance relative to vehicle (solubility fold change) (ratio); higher = more soluble protein in presence of GTP. On the procedure:
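Solubility proteome profiling in Jurkat crude lysate. Lysate was treated with Mg-GTP (0.1-10 mM) for 10 min at room temperature and 3 min at 37 °C, then solubilised with 0.8% NP40 and benzonase, followed by ultracentrifugation. Proteins were quantified by TMT10 LC-MS/MS; the value is the NP40-soluble abundance relative to the NP40-processed vehicle, from 3 independent experiments.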

± gives the standard deviation of the averaged measurements. This is one part of the list.

As for “A0A087WU02|F8VPA6 and related entries (UniProt Q96RQ1)”, the NP40-soluble protein abundance (concentration: 0.1mM) turned out to be 1.04 ± 0.096; the NP40-soluble protein abundance (concentration: 0.5mM) was 1.02 ± 0.082; the NP40-soluble protein abundance (concentration: 1mM) is 0.922 ± 0.042; the NP40-soluble protein abundance (concentration: 2mM) is 0.885 ± 0.042; the NP40-soluble protein abundance (concentration: 4mM) is 0.874 ± 0.074; the NP40-soluble protein abundance (concentration: 6mM) stood at 0.886 ± 0.07. Further, the NP40-soluble protein abundance is, setting by setting: (concentration: 8mM) 0.884 ± 0.071; (concentration: 10mM) 0.859 ± 0.052.

In the case of “A0A087WT20|B3KME9 and related entries (UniProt Q9NV06)”, the NP40-soluble protein abundance was determined as 1.01 ± 0.16 (concentration: 0.1mM); 0.951 ± 0.17 (concentration: 0.5mM); 0.98 ± 0.17 (concentration: 1mM); 0.949 ± 0.18 (concentration: 2mM); 0.964 ± 0.15 (concentration: 4mM); 0.884 ± 0.13 (concentration: 6mM). Moreover, the NP40-soluble protein abundance (concentration: 8mM) came out at 0.905 ± 0.068 and the NP40-soluble protein abundance (concentration: 10mM) was determined as 0.933 ± 0.13.

In the case of A0A087WW77|Q15334 (UniProt Q15334), the NP40-soluble protein abundance is 1.07 ± 0.14 (concentration: 0.1mM); 1.1 ± 0.071 (concentration: 0.5mM); 1.058 ± 0.0032 (concentration: 1mM); 1.11 ± 0.036 (concentration: 2mM); 1.01 ± 0.066 (concentration: 4mM); 1.03 ± 0.024 (concentration: 6mM). The NP40-soluble protein abundance by setting is: (concentration: 8mM) 1.06 ± 0.051; (concentration: 10mM) 1.08 ± 0.026.

As for A0A087WVM4|B7ZM99 (UniProt Q6UB35), the NP40-soluble protein abundance reads like this: (concentration: 0.1mM) 1 ± 0.017; (concentration: 0.5mM) 1.01 ± 0.029; (concentration: 1mM) 0.945 ± 0.014; (concentration: 2mM) 0.938 ± 0.033; (concentration: 4mM) 0.937 ± 0.013; (concentration: 6mM) 0.918 ± 0.01. Moreover, the NP40-soluble protein abundance (concentration: 8mM) came out at 0.892 ± 0.029 and the NP40-soluble protein abundance (concentration: 10mM) is 0.866 ± 0.062.

Turning to “A0A087WUD7|Q8WU76 and related entries (UniProt Q8WU76)”, the NP40-soluble protein abundance is, setting by setting: (concentration: 0.1mM) 1.11 ± 0.17; (concentration: 0.5mM) 1.06 ± 0.17; (concentration: 1mM) 1.06 ± 0.13; (concentration: 2mM) 1.08 ± 0.19; (concentration: 4mM) 1.11 ± 0.16; (concentration: 6mM) 1.09 ± 0.2. Moreover, the NP40-soluble protein abundance is, setting by setting: (concentration: 8mM) 1.05 ± 0.13; (concentration: 10mM) 0.992 ± 0.093.
